Values joined by “and” are separate entries in the source; they are usually repeats but may differ in a detail not shown here. Identical values can stand only once. Not every detail of the peptide structures is certain; ends, links or a residue may be inferred. Marks after values point to notes of the source that are not given here. Where a SMILES comes first, the peptide text is derived from it.
Key:
[1] = tested on: MCF-7 and 6WI-1 tumor cells; experiment: Tumor cell adhesion to ECM proteins in microtiter plates; format: cell-based, human, murine
Method: FIG. 8 presents exemplary data showing the inhibition of P149 in the cellular adhesion of cancer cells to extracellular matrix (ECM) proteins for both human MCF-7 breast cancer cells and for murine 6WI-1 ascites-adapted mammary tumor cells. The cellular adhesion assay was performed in 96-well microtiter plates (Nunc Company, Denmark, catalog #263339) and the wells were pre-coated with 100 microliters of each of the above-mentioned ECM proteins for 24 hours as previously determined. After adding tumor cells, the plates were then incubated at 37° C. for various times; while 6WI-1 cells usually required only 2-4 hours incubation for adhesion; MCF-7 cells required 24 hours for attachment following trypsinization. For both cell lines, the cell culture media contained 5% calf serum to ensure cell attachment. The plates were washed twice with Hank's Saline, fixed in 0.5 mL of 37% formaldehyde, stained with crystal violet and read at […] on a microplate reader. Inset: Using a CyQUANT® stain kit, (Hoechst Corp., Germany) the plates were first exposed to a freeze/thaw cycle at −70° C. for 24 hours and 37° C. for 10 minutes. CyQUANT® buffer solution (150 microliters) was added to each well, and the cell adhesion was measured by fluorescence spectroscopy and quantitated using an ImageQuant® plate scanner (Fluorimager 595, Molecular Dynamics, Sunnyvale, Calif.).
This attachment of GIP was a slightly weaker adhesion matrix than was gelatin, chondroitin sulfate, and poly-lysine which approximated 30-35%. Using P149, the optimal amount of peptide required to inhibit tumor cell adhesion was determined by absorbing soluble peptide (1.0 pg to 100 μg) to the walls of microtiter plates. A constant number of MCF-7 tumor cells (i.e., for example, 1×10^5) were then added to the microtiter well and adhesion quantitated by fluorescence. […] The quantitation of MCF-7 and 6WI-1 cell adhesion in the presence of peptide versus peptide-free media was then determined on ECM-coated microtiter plates using 3 μg GIP/well as a competitive inhibitor. The P149 peptide was added to the wells immediately after the cells were dispensed and then the mixture was incubated as described. The AFP peptide was capable of cell adhesion inhibition in most of the ECM proteins in both tumor cell lines. Inhibition of mouse and human tumor cell adhesion was somewhat equivalent using collagen IV, fibrinogen, fibronectin, and thrombospondin. […] Thus, the GIP was found capable of eliciting different attachment inhibitions dependent on the type of ECM protein coating the wall of the microtiter plate and also the tumor cell type involved.

[2] = tested on: MCF-7 human breast cancer xenografts; experiment: MCF-7 human breast cancer xenograft in nude mice; format: in vivo; conditions: 30-day time-release pellet, 0.25 μg peptide/day
[3] = tested on: LNCaP human prostate tumor cells; experiment: Whole-cell voltage clamp of LNCaP cells; format: cell-based
Method: LNCaP human prostate tumor cells were cultured on 5×5 mm plastic coverslips and were transferred to a microperfusion chamber on the stage of an inverted microscope. Whole-cell voltage clamp was accomplished with an Axopatch 200B (Axon Instr. Co., Union City, Calif.) using ruptured patches. Borosilicate glass capillaries (1.2 mm OD, 0.68 ID, type EN-I, Garner Glass Co., Claremont, Calif.) were used to fabricate patch pipettes (3-8 MΩ in the bath solution) with a Brown-Flaming horizontal micropipette puller (P-87, Sutter Instruments, San Rafael, Calif.). Patch-pipette tips were heat-polished prior to use. A micromanipulator (Narishige) fixed to the microscope positioned the pipettes. Electrode capacitance and access resistance were compensated prior to measurements. All experiments will be performed at room temperature (20-22° C.). The standard extracellular salt solution for ion currents contained (in mM): 150 NaCl, 6 KCl, 1.5 CaCl2, 1 MgCl2, 10 HEPES, 10 glucose, and pH adjusted to 7.4 with 1 N NaOH. The internal (pipette) solution for measuring ion currents contained (in mM): 140 K gluconate, 2 MgCl2, 1 CaCl2, 10 EGTA, 10 HEPES, pH 7.2 with KOH. In some experiments, external solution was exchanged for one in which cations were substituted with an impermeable organic cation (in mM): 156 N-methyl-d-glucamine (NMDG), 1 MgCl2, 10 HEPES, 10 glucose, pH 7.4 with 1 N HCl. Electrophysiological recordings were procured and analyzed using PClamp8 software (Axon Instr. Co, Union City, Calif.) and the WinASCD software (Guy Droogmans, Katholieke Universiteit; Leuven, B E). All results were recorded on computer hard drive or on digital audio tape (DAT).
FIG. 19 illustrates the basic recording configuration. A glass micropipette is positioned against the cell's plasma membrane. Slight suction is applied and the membrane seals to the glass. Gigohm resistance of this juxtaposition is necessary for accurate membrane current measurements. Once the seal is formed, further suction is applied to rupture the membrane patch. […]

[4] = tested on: MDA-MB-231 (Non-ER) breast tumor cells; experiment: MDA-MB-231 breast tumor xenograft in nude mice; format: in vivo

## CC[C@H](C)[C@H](NC(=O)[C@H](CS)NC(=O)[C@H](CC(C)C)NC(=O)[C@H](Cc1c[nH]cn1)NC(=O)CNC(=O)[C@@H](NC(=O)[C@@H](NC(=O)[C@@H](NC(=O)[C@H](CC(=O)O)NC(=O)[C@H](C)NC(=O)[C@H](C)NC(=O)CNC(=O)[C@H](CCC(=O)O)NC(=O)CNC(=O)[C@H](CS)NC(=O)[C@H](C)NC(=O)[C@H](CC(C)C)NC(=O)[C@H](CC(C)C)NC(=O)[C@H](CCCCN)NC(=O)[C@H](CC(=O)O)NC(=O)[C@H](CCC(=O)O)NC(=O)[C@H](CO)NC(=O)[C@@H](N)CC(C)C)[C@@H](C)CC)[C@@H](C)CC)[C@@H](C)CC)C(=O)N[C@@H](CCCNC(=N)N)C(=O)N[C@@H](Cc1c[nH]cn1)C(=O)N[C@@H](CCC(=O)O)C(=O)N[C@@H](CCSC)C(=O)N[C@H](C(=O)N1CCC[C@H]1C(=O)N[C@H](C(=O)N[C@@H](CC(N)=O)C(=O)N1CCC[C@H]1C(=O)NCC(=O)N[C@H](C(=O)O)C(C)C)C(C)C)[C@@H](C)O [P149] (H-LSEDKLLACGEGAADIIIGHLCIRHEMTPVNPGV-OH)
[1]
  % Inhibition Of Activity: Cell Adhesion: 65%
[1]; 3 μg GIP/well
  Competitive inhibition of MCF-7 and 6WI-1 cell adhesion to ECM-coated plates: 40-50%
[1]; ECM binding ligand COLL, LAM, integrin α2β1
  ECM to Tumor (GIP ECM Inhibition): 10-55
[1]; ECM binding ligand FBN, C3bi, ICAM, integrin αMβ2
  ECM to Tumor (GIP ECM Inhibition): 50
[1]; ECM binding ligand FBN, COLL, LAM, integrin α3β1
  ECM to Tumor (GIP ECM Inhibition): 30-55
[1]; ECM binding ligand FBN, VCAM, MADCAM, integrin α4β7
  ECM to Tumor (GIP ECM Inhibition): 50
[1]; ECM binding ligand FBN, C3i, integrin α1β2 (LFA-1)
  ECM to Tumor (GIP ECM Inhibition): 50
[1]; ECM binding ligand FBN, integrin αvβ6
  ECM to Tumor (GIP ECM Inhibition): 50
[1]; ECM binding ligand Fib, VTN, FbB, TSP, integrin αvβ3A
  ECM to Tumor (GIP ECM Inhibition): 40-50
[1]; ECM binding ligand LAM, COLL, integrin α1β1
  ECM to Tumor (GIP ECM Inhibition): 10-45
[1]; ECM binding ligand LAM-1, LAM-2, integrin α6β4
  ECM to Tumor (GIP ECM Inhibition): 10-45
[1]; ECM binding ligand LAM-1, integrin α6β1
  ECM to Tumor (GIP ECM Inhibition): 10-45
[1]; ECM binding ligand VTN, FBN, integrin αvβ1
  ECM to Tumor (GIP ECM Inhibition): 40-50
[1]; MCF-7
  Inhibition of adhesion to laminin: not inhibited
[1]; human MCF-7 cells
  Inhibition of adhesion to vitronectin: substantial inhibition
[1]; mouse 6WI-1 cells
  Inhibition of adhesion to laminin: demonstrated peptide inhibition
[1]; mouse tumor cells (6WI-1)
  Inhibition of adhesion to vitronectin: failed to respond
[1]; peptide 10 μg/ml, both tumor cell types
  Cellular adhesion supported by the peptide as matrix: 20 to 25%
[2]
  In vivo growth of estrogen-dependent MCF-7 xenografts: suppressed the in vivo growth
[3]; 10 μM
  Reversal potential: without changes in corresponding reversal potentials
  Whole-cell membrane current: increased both inward and outward whole-cell current
[3]; peptide 10 μM, voltage ramp −100-100 mV (400 ms duration)
  Slope conductance (membrane conduction): 0.84 0.26* nS/pF
[4]; 60-day implants
  Growth suppression of MDA-MB-231 xenograft in vivo: 20-30% and 20%-30%
[4]; autopsy on day 105, 5 mice/group
  Lung metastases, average: 1.5 nodules per lobe
